# Measurements as given in paper PMC5641083, “Blockage of FOXP3 transcription factor dimerization and FOXP3/AML1 interaction inhibits T regulatory cell activity: sequence optimization of a peptide inhibitor” (Oncotarget, 2017).
# The chains behind the UniProt entries cited, without tags or fusion partners. Residues count along the entry.
# UniProt Q9BZS1, residues 1-417: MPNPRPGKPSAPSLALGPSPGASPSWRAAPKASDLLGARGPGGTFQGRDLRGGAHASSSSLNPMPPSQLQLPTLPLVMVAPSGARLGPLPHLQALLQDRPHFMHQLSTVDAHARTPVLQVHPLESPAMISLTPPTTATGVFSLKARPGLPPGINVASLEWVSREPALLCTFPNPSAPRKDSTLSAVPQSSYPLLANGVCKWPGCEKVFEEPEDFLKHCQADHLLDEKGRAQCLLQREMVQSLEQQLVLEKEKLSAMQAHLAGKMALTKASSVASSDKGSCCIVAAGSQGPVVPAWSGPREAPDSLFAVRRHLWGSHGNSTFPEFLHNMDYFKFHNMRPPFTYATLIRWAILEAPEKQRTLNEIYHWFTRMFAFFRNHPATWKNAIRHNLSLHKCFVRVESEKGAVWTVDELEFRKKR
# UniProt Q01196: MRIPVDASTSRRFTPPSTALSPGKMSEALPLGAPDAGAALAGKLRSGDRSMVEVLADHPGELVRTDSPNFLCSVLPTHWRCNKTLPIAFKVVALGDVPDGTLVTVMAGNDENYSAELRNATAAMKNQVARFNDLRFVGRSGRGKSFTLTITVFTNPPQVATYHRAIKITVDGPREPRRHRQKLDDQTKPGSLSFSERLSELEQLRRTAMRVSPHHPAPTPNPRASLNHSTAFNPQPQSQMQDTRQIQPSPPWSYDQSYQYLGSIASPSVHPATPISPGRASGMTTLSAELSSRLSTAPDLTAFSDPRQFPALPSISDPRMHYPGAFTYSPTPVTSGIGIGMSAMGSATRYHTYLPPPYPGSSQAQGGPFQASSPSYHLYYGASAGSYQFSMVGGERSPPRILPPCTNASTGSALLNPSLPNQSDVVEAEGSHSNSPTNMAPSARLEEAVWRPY
# These are yes or no findings as the source states them, for the method shown. Some binding calls cover weakened binding; strength is not graded here.
# Columns and labels:
# GST-FOXP3 [1] = target: GST-FOXP3 (UniProt Q9BZS1); assay: AlphaScreen or HTRF; cell-free cross titration: FOXP3-6His 1000 to 0 nM against GST-FOXP3 300 to 0 nM; GST-FOXP3 against 6His-AML1; both purified
# GST-FOXP3 [2] = target: GST-FOXP3 (UniProt Q9BZS1); assay: AlphaScreen or HTRF; cell-free; GST-FOXP3 at 40 nM and FOXP3-His at 300 nM, or GST-FOXP3 with 6His-AML1, with different concentrations of P60, P60-derived peptides or a control peptide; both purified
substance,measurement,setting,value
AML1 protein tagged with 6 His at the N-terminus (from UniProt Q01196 1-453),binding,GST-FOXP3 [1],binds
same,binding,GST-FOXP3 [2],binds
